Data: PubChem BioAssay AID256 (DTP/NCI, 2004)
The list is a part of this screen's results and no random one: it gathers some chemical classes. Other doses and runs of a compound may be missing. T/C: endpoint of the treated group in % of that of the vehicle group. Some doses have a count of surviving animals in place of a T/C: the source files T/C as zero there, which appears to mark a toxic dose or a test without result, not a measured value. Some doses without a T/C left all or most animals alive at the check, yet need not have been tolerated: survival well below the control is almost never listed, so the zero probably covers shortened survival too. Counts of survivors are from the toxicity check (mostly the fifth day) where no day follows; animals may have died later. Schedules are NCI's codes, taken here to give the interval after Q, in days (D) or hours (H), and the number of doses after X. Where survival is the endpoint, this PubChem deposit counts one and a half times the control or more as active, and values a quarter to a half above the control carry no call in these data; other NCI protocols may use other cut-offs. Some entries hold several experiments; the values are given in rising order. Some entries show no survivor count and are marked so; the dose need not have been tolerated. Some T/C values are followed by the survivors on the day toxicity was checked, most often the fifth; where neither a count nor a note follows, no animal had died by that day. Some metal complexes and salts are drawn in pieces, as in the source, so charges may not balance.

Test system: CD2F1 mice, L1210 leukemia ip, survival T/C
Assay: NCI In Vivo Anticancer Drug Screen. Data for tumor model L1210 Leukemia (intraperitoneal) in CD2F1 (CDF1) mice
Conditions: T/C endpoint: mean survival time, higher T/C = longer survival
How it was run: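 Read-out first: treated-group measurement over vehicle-control measurement, expressed as a ratio. Animals bore a transplanted tumor line and were dosed with compound or vehicle.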

[1] = dose: 25.0 mg/kg/injection, schedule: Q01DX009 (ip), vehicle: saline
[2] = dose: 50.0 mg/kg/injection, schedule: Q01DX009 (ip), vehicle: saline
[3] = dose: 100.0 mg/kg/injection, schedule: Q01DX009 (ip), vehicle: saline
[4] = dose: 200.0 mg/kg/injection, schedule: Q01DX009 (ip), vehicle: saline
[5] = dose: 62.5 mg/kg/injection, schedule: Q01DX001 (ip), vehicle: DMSO
[6] = dose: 125.0 mg/kg/injection, schedule: Q01DX001 (ip), vehicle: DMSO
[7] = dose: 250.0 mg/kg/injection, schedule: Q01DX001 (ip), vehicle: DMSO
[8] = dose: 500.0 mg/kg/injection, schedule: Q01DX001 (ip), vehicle: DMSO

SMILES: C[N+](C)(C)c1ccccc1.F[P-](F)(F)(F)(F)F
- T/C (dose: 6.25 mg/kg/injection, schedule: Q01DX009 (ip), vehicle: saline with Tween-80): 86 % of control
- T/C (dose: 6.25 mg/kg/injection, schedule: Q04DX003 (ip), vehicle: saline with Tween-80): 97 % of control
- T/C (dose: 12.5 mg/kg/injection, schedule: Q01DX009 (ip), vehicle: saline with Tween-80): 100 % of control
- T/C (dose: 12.5 mg/kg/injection, schedule: Q04DX003 (ip), vehicle: saline with Tween-80): 97 % of control
- T/C (dose: 25.0 mg/kg/injection, schedule: Q01DX009 (ip), vehicle: saline with Tween-80): 96 % of control
- T/C (dose: 25.0 mg/kg/injection, schedule: Q04DX003 (ip), vehicle: saline with Tween-80): 102 % of control

SMILES: N#CCCOP(=O)(OCCC#N)N(CCCl)CCCl
- T/C (dose: 62.5 mg/kg/injection, schedule: Q01DX005 (ip), vehicle: Klucel (hydroxypropylcellulose) (HPC)): 96 % of control
- T/C (dose: 125.0 mg/kg/injection, schedule: Q01DX001 (ip), vehicle: Klucel (hydroxypropylcellulose) (HPC)): 104 % of control
- T/C (dose: 125.0 mg/kg/injection, schedule: Q01DX005 (ip), vehicle: Klucel (hydroxypropylcellulose) (HPC)): 100 % of control
- T/C (dose: 250.0 mg/kg/injection, schedule: Q01DX001 (ip), vehicle: Klucel (hydroxypropylcellulose) (HPC)): 102 % of control
- T/C (dose: 250.0 mg/kg/injection, schedule: Q01DX005 (ip), vehicle: Klucel (hydroxypropylcellulose) (HPC)): 96 % of control
- T/C (dose: 500.0 mg/kg/injection, schedule: Q01DX001 (ip), vehicle: Klucel (hydroxypropylcellulose) (HPC)): 101 % of control
- T/C (dose: 500.0 mg/kg/injection, schedule: Q01DX005 (ip), vehicle: Klucel (hydroxypropylcellulose) (HPC)): 94 % of control
- T/C (dose: 1000.0 mg/kg/injection, schedule: Q01DX001 (ip), vehicle: Klucel (hydroxypropylcellulose) (HPC)): 107 % of control
- T/C (dose: 1000.0 mg/kg/injection, schedule: Q01DX005 (ip), vehicle: Klucel (hydroxypropylcellulose) (HPC)): 104 % of control [5 of 6 alive]

SMILES: N=P(O)(OCCC(O)S(=O)(=O)O)N(CCCl)CCCl (stereo not given)
- T/C (dose: 25.0 mg/kg/injection, schedule: Q01DX001 (ip), vehicle: DMSO): 111 % of control
- T/C (dose: 50.0 mg/kg/injection, schedule: Q01DX001 (ip), vehicle: DMSO): 102 % of control
- T/C (dose: 100.0 mg/kg/injection, schedule: Q01DX001 (ip), vehicle: DMSO): 120 % of control
- T/C (dose: 200.0 mg/kg/injection, schedule: Q01DX001 (ip), vehicle: DMSO): 114 % of control
- T/C (dose: 266.0 mg/kg/injection, schedule: Q01DX001 (ip), vehicle: DMSO): 107 % of control
- T/C (dose: 400.0 mg/kg/injection, schedule: Q01DX001 (ip), vehicle: DMSO, evaluated on day 25): 114 % of control
- T/C (dose: 400.0 mg/kg/injection, schedule: Q01DX001 (ip), vehicle: DMSO, evaluated on day 40): 123 % of control
- T/C (dose: 600.0 mg/kg/injection, schedule: Q01DX001 (ip), vehicle: DMSO): 137 % of control
- T/C (dose: 900.0 mg/kg/injection, schedule: Q01DX001 (ip), vehicle: DMSO): 109 % of control [4 of 6 alive]

SMILES: CC1(C)CN1P(=O)(Nc1ncccn1)N1CC1(C)C (stereo not given)
- T/C (dose: 12.5 mg/kg/injection, schedule: Q01DX009 (ip), vehicle: saline): 102 % of control
- T/C [1]: 108 % of control
- T/C (dose: 50.0 mg/kg/injection, schedule: Q01DX001 (ip), vehicle: saline): 128 % of control
- T/C [2]: 128 % of control
- T/C (dose: 100.0 mg/kg/injection, schedule: Q01DX001 (ip), vehicle: saline, evaluated on day 30): 122 % of control
- T/C (dose: 100.0 mg/kg/injection, schedule: Q01DX001 (ip), vehicle: saline, run until all animals had died): 125 % of control
- T/C [3]: 150 % of control
- T/C (dose: 200.0 mg/kg/injection, schedule: Q01DX001 (ip), vehicle: saline, evaluated on day 30): 141 % of control
- T/C (dose: 200.0 mg/kg/injection, schedule: Q01DX001 (ip), vehicle: saline, run until all animals had died): 140 % of control
- T/C [4]: 271 % of control
- T/C (dose: 400.0 mg/kg/injection, schedule: Q01DX001 (ip), vehicle: saline, evaluated on day 30): 150 % of control
- T/C (dose: 400.0 mg/kg/injection, schedule: Q01DX001 (ip), vehicle: saline, run until all animals had died): 130 % of control
- T/C (dose: 400.0 mg/kg/injection, schedule: Q01DX009 (ip), vehicle: saline): 90 % of control

SMILES: CCCCCSCSP(C)(=O)OC(C)C (stereo not given)
- T/C (dose: 0.31 mg/kg/injection, schedule: Q04DX003 (ip), vehicle: saline with Tween-80): 103 % of control [survivor count not shown]
- T/C (dose: 0.63 mg/kg/injection, schedule: Q04DX003 (ip), vehicle: saline with Tween-80): 97 % of control [survivor count not shown]

SMILES: O=[N+]([O-])OCC1CO1 (stereo not given)
- T/C (dose: 75.0 mg/kg/injection, schedule: Q01DX001 (ip), vehicle: saline): 95 % of control [survivor count not shown]
- T/C (dose: 150.0 mg/kg/injection, schedule: Q01DX001 (ip), vehicle: saline): 93 % of control [survivor count not shown]
- T/C (dose: 300.0 mg/kg/injection, schedule: Q01DX001 (ip), vehicle: saline): 96 % of control [survivor count not shown]

SMILES: ClCCN[PH+]1OCCCN1CCCl.ClCCN[PH+]1OCCCN1CCCl.[Cl][Pt][Cl] (stereo not given)
- T/C (dose: 3.13 mg/kg/injection, schedule: Q04DX003 (ip), vehicle: distilled water + Tween-80): 93 % of control
- T/C (dose: 6.25 mg/kg/injection, schedule: Q04DX003 (ip), vehicle: distilled water + Tween-80): 93 % of control
- T/C (dose: 12.5 mg/kg/injection, schedule: Q04DX003 (ip), vehicle: distilled water + Tween-80): 97 % of control
- T/C (dose: 25.0 mg/kg/injection, schedule: Q04DX003 (ip), vehicle: distilled water + Tween-80): 92 % of control
- T/C (dose: 50.0 mg/kg/injection, schedule: Q04DX003 (ip), vehicle: distilled water + Tween-80): 92 % of control
- T/C (dose: 100.0 mg/kg/injection, schedule: Q04DX003 (ip), vehicle: distilled water + Tween-80): 93 % of control
- T/C (dose: 200.0 mg/kg/injection, schedule: Q04DX003 (ip), vehicle: distilled water + Tween-80): 91 % of control [5 of 6 alive]

SMILES: CCP1(=O)Nc2ccc(C)cc2N1 (stereo not given)
- T/C (dose: 100.0 mg/kg/injection, schedule: Q01DX001 (ip), vehicle: saline): 100 % of control [survivor count not shown]
- T/C (dose: 200.0 mg/kg/injection, schedule: Q01DX001 (ip), vehicle: saline): 100 % of control [survivor count not shown]
- T/C (dose: 400.0 mg/kg/injection, schedule: Q01DX001 (ip), vehicle: saline): 91 % of control [survivor count not shown]

SMILES: NP(=O)(OCCC1CO1)N(CCCl)CCCl (stereo not given)
- T/C (dose: 15.63 mg/kg/injection, schedule: Q01DX001 (ip), vehicle: DMSO): 98 % of control
- T/C (dose: 31.25 mg/kg/injection, schedule: Q01DX001 (ip), vehicle: DMSO): 101 % of control
- T/C [5]: 109 % of control
- T/C [6]: 101 % of control
- T/C [7]: 97 % of control
- T/C [8]: 104 % of control
- T/C (dose: 1000.0 mg/kg/injection, schedule: Q01DX001 (ip), vehicle: DMSO): 106 % of control

SMILES: [O-]/[N+](C/[N+]([O-])=N/O)=N\O
- T/C [1]: 98 % of control
- T/C [2]: 98 % of control
- survivor count [2]: 6 of 6
- T/C [3]: 86 and 98 % of control
- survivor count [4]: 1 of 6

SMILES: CC(O)C(C)COP(=O)(N(CCCl)CCCl)N1CC1 (stereo not given)
- T/C (dose: 15.62 mg/kg/injection, schedule: Q01DX001 (ip), vehicle: DMSO): 97 % of control
- T/C (dose: 31.3 mg/kg/injection, schedule: Q01DX001 (ip), vehicle: DMSO): 101 % of control
- T/C [5]: 101 % of control
- T/C [6]: 129 % of control
- T/C [7]: 141 % of control
- survivor count [8]: 2 of 6
